This passage reports binding results from publication PMC9189354.

Chains of the proteins cited; added tags and fusions are not shown. Residues count along the entry.
UniProt P08195, residues 102-630: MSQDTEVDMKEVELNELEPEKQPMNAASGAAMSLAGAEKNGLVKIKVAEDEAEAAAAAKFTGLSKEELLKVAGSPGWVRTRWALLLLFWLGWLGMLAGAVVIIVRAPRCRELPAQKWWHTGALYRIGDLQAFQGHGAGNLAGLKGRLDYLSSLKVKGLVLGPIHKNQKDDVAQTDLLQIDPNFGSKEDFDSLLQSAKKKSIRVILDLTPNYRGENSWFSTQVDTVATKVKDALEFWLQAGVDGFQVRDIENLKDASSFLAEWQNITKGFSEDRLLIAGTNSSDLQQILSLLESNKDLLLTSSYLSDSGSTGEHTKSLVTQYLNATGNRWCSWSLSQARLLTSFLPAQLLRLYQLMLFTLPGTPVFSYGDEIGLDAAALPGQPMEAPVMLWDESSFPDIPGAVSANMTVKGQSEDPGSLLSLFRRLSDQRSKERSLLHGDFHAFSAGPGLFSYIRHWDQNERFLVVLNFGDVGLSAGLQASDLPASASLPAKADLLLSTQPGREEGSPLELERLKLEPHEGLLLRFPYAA

These are yes or no findings as the source states them, for the method shown. In cells and extracts the contact can be indirect. Some results given as binding are weak or reduced against the parent protein; the word gives no strength.

Test [1] addresses Solute carrier family 3 member 2 (SLC3A2), endogenous (human (endogenous in the paper's human cell lines; the line used for the co-IP is not stated)) (UniProt P08195). In words: co-IP; co-immunoprecipitation of exogenous or endogenous MIF and SLC3A2; cells, antibodies and buffers not described.
The target in test [2] is Solute carrier family 3 member 2 (SLC3A2), exogenous (UniProt P08195). The description is as above.

B1: Macrophage migration inhibitory factor (MIF), endogenous (protein, UniProt P14174 1-115)
chain: MPMFIVNTNVPRASVPDGFLSELTQQLAQATGKPPQYIAVHVVPDQLMAFGGSSEPCALCSLHSIGKIGGAQNRSYSKLLCGLLAERLRISPDRVYINYYDMNAANVGWNNSTFA
Consider B1, for which the binding result in test [1] is “binds”.

B2: Macrophage migration inhibitory factor (MIF), exogenous (protein, UniProt P14174 1-115)
chain: MPMFIVNTNVPRASVPDGFLSELTQQLAQATGKPPQYIAVHVVPDQLMAFGGSSEPCALCSLHSIGKIGGAQNRSYSKLLCGLLAERLRISPDRVYINYYDMNAANVGWNNSTFA
Regarding B2, the binding entry in test [2] is “binds”.
